# Literature values as cited in patent US6825217B2, “Carbinols for the treatment of neuropathic dysfunction” (Endo Pharmaceuticals, Inc., priority 2001, dated 2004).
# At least one compound was matched to its structure with a doubt left.
# Details: CCI rats; intraperitoneal 25 mg/kg; cited from earlier work
compound,measurement,value
CN1CC[C@@]23CCCC[C@@H]2[C@@H]1Cc1ccc(O)cc13 [dextrorphan],heat hyperalgesia,beneficial
same,mechanical allodynia,no effect
